Binding data for four molecules are collected here from paper PMC10977726.

Protein sequences, listed by entry. Tags and fused reporters are not part of them. Residues count along the entry.
UniProt P02768, residues 25-609: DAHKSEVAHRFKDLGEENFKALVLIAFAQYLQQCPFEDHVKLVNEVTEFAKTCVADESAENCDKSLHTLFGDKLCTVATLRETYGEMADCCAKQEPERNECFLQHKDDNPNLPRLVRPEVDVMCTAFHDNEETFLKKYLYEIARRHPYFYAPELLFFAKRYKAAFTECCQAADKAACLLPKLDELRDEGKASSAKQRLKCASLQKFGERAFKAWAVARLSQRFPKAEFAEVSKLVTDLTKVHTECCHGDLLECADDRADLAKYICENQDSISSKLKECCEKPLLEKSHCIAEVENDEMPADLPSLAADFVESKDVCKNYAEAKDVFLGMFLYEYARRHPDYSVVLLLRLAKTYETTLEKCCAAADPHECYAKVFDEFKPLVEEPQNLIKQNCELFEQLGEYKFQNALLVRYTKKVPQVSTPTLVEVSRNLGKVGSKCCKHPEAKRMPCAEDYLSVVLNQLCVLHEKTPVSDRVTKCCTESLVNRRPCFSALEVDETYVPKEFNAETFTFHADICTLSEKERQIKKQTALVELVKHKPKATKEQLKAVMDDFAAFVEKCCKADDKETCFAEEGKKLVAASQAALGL
UniProt P01127, residues 82-190: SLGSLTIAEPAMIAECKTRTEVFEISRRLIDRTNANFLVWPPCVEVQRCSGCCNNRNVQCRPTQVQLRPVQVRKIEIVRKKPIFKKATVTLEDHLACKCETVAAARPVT

In assay [1] the target is human serum albumin, biotinylated (human) (UniProt P02768). Kind of assay: ELISA; […], room temperature; […]; only the target purified.
A further assay has as its target biotin-PDGF-bb (human) (UniProt P01127). Kind of assay: SPR; […]; Biacore S200, […] (PBS with 0.05% Tween 20, pH 7.4); […]; both purified.

Positions count from the first letter of the chain named. No constants are given. Whether binding was seen depends on the method and setting. Some results given as binding are weak or reduced against the parent protein; the word gives no strength.

B1: Hs-Chr-3 displayed on M13 phage (designed binder)
chain: VSCTTSKECWSVCQRLHNTSYGTGCMRNTCYCTP
With B1, the binding entry in assay [1] is “binds”.

B2: P-AST-3 (designed binder)
chain: GCAFEGESCNVQFYPCCVSMKLMCIPGNPDGTCYYL
For B2, the binding result in the assay with biotin-PDGF-bb (human) is “no binding (tested: >50 µM)”.

B3: Hs-Chr-1 displayed on M13 phage (designed binder)
chain: VSCTTSKECWSVCQRLHNTSKGRCDEICGCRW
B3: the binding entry in assay [1] is “binds”.

B4: Hs-Chr-2 displayed on M13 phage (designed binder)
chain: B3 chain with K21R, D25E, R31S, W32N
Regarding B4, in assay [1], the binding result is given as “binds”.
